Binding data for four molecules are collected here from article PMC4077733.

Chains of the proteins cited; added tags and fusions are not shown.
UniProt Q16254: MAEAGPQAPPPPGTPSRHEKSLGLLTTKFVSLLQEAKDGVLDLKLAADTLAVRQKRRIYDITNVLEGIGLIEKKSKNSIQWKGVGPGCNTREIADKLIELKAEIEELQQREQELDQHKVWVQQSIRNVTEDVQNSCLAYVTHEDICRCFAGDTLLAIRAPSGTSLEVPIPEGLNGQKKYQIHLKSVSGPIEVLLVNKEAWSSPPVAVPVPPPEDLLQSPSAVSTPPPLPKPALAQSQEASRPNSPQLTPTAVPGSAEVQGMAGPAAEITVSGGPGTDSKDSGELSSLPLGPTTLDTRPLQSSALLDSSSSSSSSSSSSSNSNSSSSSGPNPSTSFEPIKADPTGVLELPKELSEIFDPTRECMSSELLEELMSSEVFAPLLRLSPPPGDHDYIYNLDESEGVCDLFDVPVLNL
UniProt Q01094: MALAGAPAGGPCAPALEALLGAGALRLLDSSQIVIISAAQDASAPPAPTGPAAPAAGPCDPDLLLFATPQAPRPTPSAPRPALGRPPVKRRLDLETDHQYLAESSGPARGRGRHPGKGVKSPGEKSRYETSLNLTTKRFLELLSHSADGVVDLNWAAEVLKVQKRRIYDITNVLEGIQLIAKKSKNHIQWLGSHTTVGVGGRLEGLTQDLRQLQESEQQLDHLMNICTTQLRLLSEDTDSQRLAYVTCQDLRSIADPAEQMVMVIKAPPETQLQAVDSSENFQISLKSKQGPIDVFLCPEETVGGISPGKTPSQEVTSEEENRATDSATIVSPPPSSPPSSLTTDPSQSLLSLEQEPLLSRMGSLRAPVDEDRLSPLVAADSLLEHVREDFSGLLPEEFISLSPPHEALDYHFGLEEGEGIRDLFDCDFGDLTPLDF
UniProt O15379: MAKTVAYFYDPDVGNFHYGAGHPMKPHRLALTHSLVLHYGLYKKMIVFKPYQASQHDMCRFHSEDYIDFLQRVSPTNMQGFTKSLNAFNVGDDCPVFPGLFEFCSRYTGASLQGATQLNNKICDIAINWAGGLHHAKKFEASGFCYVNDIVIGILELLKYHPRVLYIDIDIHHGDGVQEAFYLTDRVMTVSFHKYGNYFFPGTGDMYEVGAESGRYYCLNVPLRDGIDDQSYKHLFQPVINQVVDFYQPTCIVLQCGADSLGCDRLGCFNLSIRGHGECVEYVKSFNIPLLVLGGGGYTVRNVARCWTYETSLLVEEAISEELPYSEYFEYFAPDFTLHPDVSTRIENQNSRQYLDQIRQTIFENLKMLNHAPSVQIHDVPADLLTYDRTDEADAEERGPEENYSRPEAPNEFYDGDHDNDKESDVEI
UniProt Q13547: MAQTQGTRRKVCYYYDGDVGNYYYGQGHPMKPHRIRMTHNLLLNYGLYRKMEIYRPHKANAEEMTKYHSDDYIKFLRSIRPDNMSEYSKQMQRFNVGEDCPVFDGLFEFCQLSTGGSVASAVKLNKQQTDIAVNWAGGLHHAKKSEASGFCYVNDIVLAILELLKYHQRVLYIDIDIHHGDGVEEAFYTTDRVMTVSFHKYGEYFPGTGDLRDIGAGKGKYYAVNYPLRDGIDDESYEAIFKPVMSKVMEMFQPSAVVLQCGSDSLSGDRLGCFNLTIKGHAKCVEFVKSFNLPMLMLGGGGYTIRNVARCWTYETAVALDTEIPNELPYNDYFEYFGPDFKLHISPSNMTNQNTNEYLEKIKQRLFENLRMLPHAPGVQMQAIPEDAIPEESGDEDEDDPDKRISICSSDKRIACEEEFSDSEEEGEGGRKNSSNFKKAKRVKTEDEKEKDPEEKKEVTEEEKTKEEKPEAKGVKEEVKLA

Results are given in words; binding and its absence hold for the method and conditions named. Binding seen in cells or lysates may run through a third protein. Some binding calls cover weakened binding; strength is not graded here.

Assay in all cases: co-IP; MDA-MB-231 cell lysates in NP-40 lysis buffer; specific antibodies with protein G agarose beads; western blot; rabbit normal IgG as negative control
In assay [1] the target is T1, Jumonji domain containing 2A (JMJD2A) (human (endogenous in MDA-MB-231)) (UniProt O75164).
T1 sequence: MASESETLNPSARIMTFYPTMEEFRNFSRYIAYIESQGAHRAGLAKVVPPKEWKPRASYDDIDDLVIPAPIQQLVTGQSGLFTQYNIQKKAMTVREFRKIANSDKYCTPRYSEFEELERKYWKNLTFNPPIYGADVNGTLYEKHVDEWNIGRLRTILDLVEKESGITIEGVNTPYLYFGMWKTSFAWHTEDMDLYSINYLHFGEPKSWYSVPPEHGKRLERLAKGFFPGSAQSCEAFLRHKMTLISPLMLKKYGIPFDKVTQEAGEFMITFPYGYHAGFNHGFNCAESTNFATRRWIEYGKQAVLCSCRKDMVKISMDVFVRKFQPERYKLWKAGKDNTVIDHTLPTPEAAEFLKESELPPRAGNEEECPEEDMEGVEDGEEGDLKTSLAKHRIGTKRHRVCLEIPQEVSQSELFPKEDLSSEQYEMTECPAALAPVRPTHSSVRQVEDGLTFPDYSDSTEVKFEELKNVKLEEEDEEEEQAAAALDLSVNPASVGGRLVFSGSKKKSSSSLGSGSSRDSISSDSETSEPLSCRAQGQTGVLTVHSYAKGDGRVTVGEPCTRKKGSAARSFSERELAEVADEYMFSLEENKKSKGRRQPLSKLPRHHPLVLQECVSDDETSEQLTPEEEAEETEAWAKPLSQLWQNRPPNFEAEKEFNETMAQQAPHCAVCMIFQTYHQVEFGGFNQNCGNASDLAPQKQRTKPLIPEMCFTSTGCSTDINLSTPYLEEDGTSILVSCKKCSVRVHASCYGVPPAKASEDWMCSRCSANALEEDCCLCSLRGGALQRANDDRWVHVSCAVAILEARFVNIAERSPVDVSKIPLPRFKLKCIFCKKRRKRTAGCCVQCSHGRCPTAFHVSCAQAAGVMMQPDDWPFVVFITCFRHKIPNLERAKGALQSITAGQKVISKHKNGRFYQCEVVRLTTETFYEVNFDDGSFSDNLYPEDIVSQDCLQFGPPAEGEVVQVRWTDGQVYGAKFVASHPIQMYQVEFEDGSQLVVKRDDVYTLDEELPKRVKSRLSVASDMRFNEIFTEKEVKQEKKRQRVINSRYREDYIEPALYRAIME

Assay [2] addresses E2F4 (human (endogenous in MDA-MB-231)) (UniProt Q16254).
The target in assay [3] is E2F1 (human (endogenous in MDA-MB-231)) (UniProt Q01094).

As for “histone deacetylase (HDAC)3 (from UniProt O15379 1-428)”, the binding result in assay [1] is recorded as “binds”. Still for that read-out and setting: next, “histone deacetylase (HDAC)1 (from UniProt Q13547 1-482)”: “binds”; E2F4 (from UniProt Q16254 1-413): “binds”.

B1: Jumonji domain containing 2A (JMJD2A) (protein, UniProt O75164-1 1-1064)
chain: MASESETLNPSARIMTFYPTMEEFRNFSRYIAYIESQGAHRAGLAKVVPPKEWKPRASYDDIDDLVIPAPIQQLVTGQSGLFTQYNIQKKAMTVREFRKIANSDKYCTPRYSEFEELERKYWKNLTFNPPIYGADVNGTLYEKHVDEWNIGRLRTILDLVEKESGITIEGVNTPYLYFGMWKTSFAWHTEDMDLYSINYLHFGEPKSWYSVPPEHGKRLERLAKGFFPGSAQSCEAFLRHKMTLISPLMLKKYGIPFDKVTQEAGEFMITFPYGYHAGFNHGFNCAESTNFATRRWIEYGKQAVLCSCRKDMVKISMDVFVRKFQPERYKLWKAGKDNTVIDHTLPTPEAAEFLKESELPPRAGNEEECPEEDMEGVEDGEEGDLKTSLAKHRIGTKRHRVCLEIPQEVSQSELFPKEDLSSEQYEMTECPAALAPVRPTHSSVRQVEDGLTFPDYSDSTEVKFEELKNVKLEEEDEEEEQAAAALDLSVNPASVGGRLVFSGSKKKSSSSLGSGSSRDSISSDSETSEPLSCRAQGQTGVLTVHSYAKGDGRVTVGEPCTRKKGSAARSFSERELAEVADEYMFSLEENKKSKGRRQPLSKLPRHHPLVLQECVSDDETSEQLTPEEEAEETEAWAKPLSQLWQNRPPNFEAEKEFNETMAQQAPHCAVCMIFQTYHQVEFGGFNQNCGNASDLAPQKQRTKPLIPEMCFTSTGCSTDINLSTPYLEEDGTSILVSCKKCSVRVHASCYGVPPAKASEDWMCSRCSANALEEDCCLCSLRGGALQRANDDRWVHVSCAVAILEARFVNIAERSPVDVSKIPLPRFKLKCIFCKKRRKRTAGCCVQCSHGRCPTAFHVSCAQAAGVMMQPDDWPFVVFITCFRHKIPNLERAKGALQSITAGQKVISKHKNGRFYQCEVVRLTTETFYEVNFDDGSFSDNLYPEDIVSQDCLQFGPPAEGEVVQVRWTDGQVYGAKFVASHPIQMYQVEFEDGSQLVVKRDDVYTLDEELPKRVKSRLSVASDMRFNEIFTEKEVKQEKKRQRVINSRYREDYIEPALYRAIME
B1: the binding result in assay [2] and in assay [3] was “binds” in each case.
